Results are given in words; binding and its absence hold for the method and conditions named. Some binding calls cover weakened binding; strength is not graded here.
Target: DnaK (bacterial two-hybrid fusion) (S. aureus) (UniProt P99110)
Experiment: two-hybrid; bacterial two-hybrid (BACTH, T18/T25 adenylate cyclase fusions) in E. coli BTH101; beta-galactosidase activity judged qualitatively by blue colour on X-Gal

Protein sequences, listed by entry. Tags and fused reporters are not part of them.
UniProt P99110: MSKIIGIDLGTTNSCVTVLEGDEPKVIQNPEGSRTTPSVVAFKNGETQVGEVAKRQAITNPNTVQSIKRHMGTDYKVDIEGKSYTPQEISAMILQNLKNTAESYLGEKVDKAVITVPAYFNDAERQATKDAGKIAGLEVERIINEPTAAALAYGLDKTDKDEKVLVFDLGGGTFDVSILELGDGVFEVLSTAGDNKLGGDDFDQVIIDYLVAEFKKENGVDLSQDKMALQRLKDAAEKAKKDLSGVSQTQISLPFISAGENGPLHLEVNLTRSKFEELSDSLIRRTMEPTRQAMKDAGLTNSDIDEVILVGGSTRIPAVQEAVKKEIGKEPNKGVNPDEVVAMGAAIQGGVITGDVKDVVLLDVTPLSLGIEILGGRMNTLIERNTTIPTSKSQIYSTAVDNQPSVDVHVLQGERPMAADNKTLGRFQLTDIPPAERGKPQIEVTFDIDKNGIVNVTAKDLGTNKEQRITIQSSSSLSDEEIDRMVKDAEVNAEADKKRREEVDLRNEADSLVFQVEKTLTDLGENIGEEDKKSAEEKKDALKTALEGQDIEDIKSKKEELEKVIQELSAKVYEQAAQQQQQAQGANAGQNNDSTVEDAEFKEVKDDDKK
UniProt P0A031: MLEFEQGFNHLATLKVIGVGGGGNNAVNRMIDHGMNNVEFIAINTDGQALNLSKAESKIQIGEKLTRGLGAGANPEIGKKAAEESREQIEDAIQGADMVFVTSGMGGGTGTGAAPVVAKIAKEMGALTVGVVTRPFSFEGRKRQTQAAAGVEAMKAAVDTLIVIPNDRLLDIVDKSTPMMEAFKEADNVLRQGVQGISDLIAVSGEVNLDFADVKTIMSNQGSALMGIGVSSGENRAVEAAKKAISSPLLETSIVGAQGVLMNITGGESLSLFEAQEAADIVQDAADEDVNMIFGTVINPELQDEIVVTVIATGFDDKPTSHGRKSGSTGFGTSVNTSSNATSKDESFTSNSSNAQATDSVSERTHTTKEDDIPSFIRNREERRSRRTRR

## FtsZ (bacterial two-hybrid fusion) (from UniProt P0A031 1-390)
  binding: binds

— paper PMC5572376
